Reference: the supplement of paper PMC6411743
± gives the standard deviation of the averaged measurements. The entries are a selection whose mix differs from that of the whole data set.

How the values were obtained:
Experiment in all cases: NP40-soluble protein abundance relative to vehicle (solubility fold change) (ratio); higher = more soluble protein in presence of AMP-PNP
[1] = target: T1, A0A087WTW0|A0A087WVR3|Q96T88 and related entries (UniProt Q96T88)
T1 sequence (whole entry): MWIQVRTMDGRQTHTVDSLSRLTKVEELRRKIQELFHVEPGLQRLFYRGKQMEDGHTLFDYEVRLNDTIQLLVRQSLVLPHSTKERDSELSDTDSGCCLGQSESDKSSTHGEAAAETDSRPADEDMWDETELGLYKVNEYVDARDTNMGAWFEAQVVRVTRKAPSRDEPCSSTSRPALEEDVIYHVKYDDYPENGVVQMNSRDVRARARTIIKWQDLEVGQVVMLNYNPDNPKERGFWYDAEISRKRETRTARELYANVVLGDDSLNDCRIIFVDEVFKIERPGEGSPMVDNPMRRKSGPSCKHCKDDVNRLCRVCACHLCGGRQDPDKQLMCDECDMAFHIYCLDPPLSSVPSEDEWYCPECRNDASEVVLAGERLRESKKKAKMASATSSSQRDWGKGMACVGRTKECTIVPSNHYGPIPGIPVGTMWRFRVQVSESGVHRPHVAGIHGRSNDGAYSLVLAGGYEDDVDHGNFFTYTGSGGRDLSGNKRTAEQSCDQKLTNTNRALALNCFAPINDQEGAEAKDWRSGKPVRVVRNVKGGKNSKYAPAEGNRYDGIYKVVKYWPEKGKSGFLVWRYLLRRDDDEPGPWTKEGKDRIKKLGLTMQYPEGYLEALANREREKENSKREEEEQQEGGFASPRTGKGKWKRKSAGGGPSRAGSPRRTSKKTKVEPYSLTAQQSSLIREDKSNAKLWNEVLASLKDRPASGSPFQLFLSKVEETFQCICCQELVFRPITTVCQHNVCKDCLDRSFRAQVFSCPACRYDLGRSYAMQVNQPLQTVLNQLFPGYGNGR
Summary of the method: (§1)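 Each value is a fold change relative to the detergent-processed vehicle, calculated per replicate from vsn-normalised intensities. Jurkat crude lysate received eight concentrations (0.1 to 10 mM) for 10 min at room temperature and 3 min at 37 °C, then was solubilised in 0.8% NP40 with benzonase (60 min, 4 °C). The ultracentrifuged supernatant was TMT-labelled and run by LC-MS/MS in three independent experiments.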

[2] = target: T2, A0A087WUA5|Q9H223 (UniProt Q9H223)
T2 sequence (whole entry): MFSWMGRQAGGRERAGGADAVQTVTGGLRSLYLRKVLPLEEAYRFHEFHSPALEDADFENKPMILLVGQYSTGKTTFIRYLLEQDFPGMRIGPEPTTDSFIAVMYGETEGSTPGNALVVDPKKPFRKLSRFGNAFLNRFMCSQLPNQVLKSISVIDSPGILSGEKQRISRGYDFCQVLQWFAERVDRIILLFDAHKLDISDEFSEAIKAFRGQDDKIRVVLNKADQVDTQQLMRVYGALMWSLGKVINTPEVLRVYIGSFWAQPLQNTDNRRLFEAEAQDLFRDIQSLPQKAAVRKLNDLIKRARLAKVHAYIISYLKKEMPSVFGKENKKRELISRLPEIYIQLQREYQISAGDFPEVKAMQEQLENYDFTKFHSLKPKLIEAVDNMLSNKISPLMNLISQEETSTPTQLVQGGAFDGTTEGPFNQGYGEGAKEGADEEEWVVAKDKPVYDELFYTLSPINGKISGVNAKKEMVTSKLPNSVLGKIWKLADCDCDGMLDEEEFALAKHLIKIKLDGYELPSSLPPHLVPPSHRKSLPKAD
Summary of the method: as §1

[3] = target: T3, A0A087WVU5|O00512 (UniProt O00512)
T3 sequence (whole entry): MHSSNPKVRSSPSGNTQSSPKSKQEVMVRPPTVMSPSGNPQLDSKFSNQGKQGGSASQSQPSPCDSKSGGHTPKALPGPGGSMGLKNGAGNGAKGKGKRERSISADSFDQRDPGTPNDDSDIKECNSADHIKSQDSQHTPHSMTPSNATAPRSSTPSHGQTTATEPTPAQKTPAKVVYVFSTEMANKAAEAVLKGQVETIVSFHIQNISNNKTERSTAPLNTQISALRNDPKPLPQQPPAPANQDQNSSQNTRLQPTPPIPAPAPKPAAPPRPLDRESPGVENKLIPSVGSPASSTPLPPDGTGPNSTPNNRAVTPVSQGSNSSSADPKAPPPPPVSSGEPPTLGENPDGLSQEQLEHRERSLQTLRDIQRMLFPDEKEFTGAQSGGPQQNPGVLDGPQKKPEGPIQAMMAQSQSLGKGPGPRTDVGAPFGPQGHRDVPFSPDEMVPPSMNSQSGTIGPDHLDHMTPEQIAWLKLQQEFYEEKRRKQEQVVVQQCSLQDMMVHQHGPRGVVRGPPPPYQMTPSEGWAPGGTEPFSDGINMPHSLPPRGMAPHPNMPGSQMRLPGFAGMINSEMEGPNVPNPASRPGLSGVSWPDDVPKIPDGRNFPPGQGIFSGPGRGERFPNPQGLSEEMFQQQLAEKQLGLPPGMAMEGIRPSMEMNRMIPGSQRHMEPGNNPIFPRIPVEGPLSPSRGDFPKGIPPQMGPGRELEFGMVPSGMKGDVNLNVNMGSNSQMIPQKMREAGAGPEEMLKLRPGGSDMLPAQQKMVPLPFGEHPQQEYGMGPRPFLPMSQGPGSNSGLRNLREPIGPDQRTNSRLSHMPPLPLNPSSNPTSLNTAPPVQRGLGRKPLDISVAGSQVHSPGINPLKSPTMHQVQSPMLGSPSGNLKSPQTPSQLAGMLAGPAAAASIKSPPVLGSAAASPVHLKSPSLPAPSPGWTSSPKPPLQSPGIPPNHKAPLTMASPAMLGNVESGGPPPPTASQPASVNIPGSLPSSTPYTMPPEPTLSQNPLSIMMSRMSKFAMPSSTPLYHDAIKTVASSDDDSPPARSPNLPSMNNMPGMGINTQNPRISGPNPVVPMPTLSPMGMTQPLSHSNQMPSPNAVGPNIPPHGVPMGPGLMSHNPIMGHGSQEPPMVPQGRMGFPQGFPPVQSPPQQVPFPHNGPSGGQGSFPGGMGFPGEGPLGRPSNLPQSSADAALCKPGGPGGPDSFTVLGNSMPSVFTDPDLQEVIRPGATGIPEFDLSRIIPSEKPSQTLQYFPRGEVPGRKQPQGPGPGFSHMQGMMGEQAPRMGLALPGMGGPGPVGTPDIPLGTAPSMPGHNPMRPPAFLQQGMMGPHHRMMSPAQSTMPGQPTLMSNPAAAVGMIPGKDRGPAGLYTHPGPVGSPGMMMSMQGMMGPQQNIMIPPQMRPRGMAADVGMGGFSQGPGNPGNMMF
Summary of the method: as §1

[4] = target: T4, A0A087WVZ0|Q9Y5U8 (UniProt Q9Y5U8)
T4 sequence (whole entry): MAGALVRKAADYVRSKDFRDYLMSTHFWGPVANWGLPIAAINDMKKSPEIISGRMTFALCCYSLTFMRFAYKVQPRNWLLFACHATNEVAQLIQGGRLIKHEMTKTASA
Summary of the method: as §1

Compound `Nc1ncnc2c1ncn2[C@@H]1O[C@H](COP(=O)(O)OP(=O)(O)NP(=O)(O)O)[C@@H](O)[C@H]1O` [adenylyl imidodiphosphate] has an NP40-soluble protein abundance ([1]; concentration: 1mM) of 1.03 ± 0.012, an NP40-soluble protein abundance ([1]; concentration: 2mM) of 1.01 ± 0.03 and an NP40-soluble protein abundance ([1]; concentration: 4mM) of 1.06 ± 0.016. For the same compound, the NP40-soluble protein abundance ([1]; concentration: 6mM) was 1.05 ± 0.013, the NP40-soluble protein abundance ([1]; concentration: 8mM) was 1.07 ± 0.029 and the NP40-soluble protein abundance ([1]; concentration: 10mM) was 1.12 ± 0.064. It also gave an NP40-soluble protein abundance ([2]; concentration: 1mM) of 1.01 ± 0.017, an NP40-soluble protein abundance ([2]; concentration: 2mM) of 1.01 ± 0.034 and an NP40-soluble protein abundance ([2]; concentration: 4mM) of 1.03 ± 0.011. For the same compound, the NP40-soluble protein abundance ([2]; concentration: 6mM) was 0.998 ± 0.02, the NP40-soluble protein abundance ([2]; concentration: 8mM) was 0.992 ± 0.019 and the NP40-soluble protein abundance ([2]; concentration: 10mM) was 1 ± 0.032. The NP40-soluble protein abundance ([3]; concentration: 1mM) was 0.986 ± 0.012, the NP40-soluble protein abundance ([3]; concentration: 2mM) was 1 ± 0.033 and the NP40-soluble protein abundance ([3]; concentration: 4mM) was 0.986 ± 0.015. The NP40-soluble protein abundance ([3]; concentration: 6mM) was 0.984 ± 0.023, the NP40-soluble protein abundance ([3]; concentration: 8mM) was 0.969 ± 0.027 and the NP40-soluble protein abundance ([3]; concentration: 10mM) was 0.985 ± 0.012. It also gave an NP40-soluble protein abundance ([4]; concentration: 1mM) of 0.9859 ± 0.0043, an NP40-soluble protein abundance ([4]; concentration: 2mM) of 0.962 ± 0.01 and an NP40-soluble protein abundance ([4]; concentration: 4mM) of 0.962 ± 0.022. For the same compound, the NP40-soluble protein abundance ([4]; concentration: 6mM) was 0.994 ± 0.077, the NP40-soluble protein abundance ([4]; concentration: 8mM) was 1.03 ± 0.087 and the NP40-soluble protein abundance ([4]; concentration: 10mM) was 1.01 ± 0.032.
